These are yes or no findings as the source states them, for the method shown. Some binding calls cover weakened binding; strength is not graded here.
Molecular target: hSyndecan-2 (R&D Systems 2965-SD) (human) (UniProt P34741)
Test: ELISA; partner proteins coated at 5 µg/ml, biotinylated hVISTA-Fc serially diluted in 2% BSA in PBS at pH 7.4; HRP-streptavidin; both purified

Protein sequences, listed by entry. Tags and fused reporters are not part of them. Residues count along the entry.
UniProt P34741, residues 19-144: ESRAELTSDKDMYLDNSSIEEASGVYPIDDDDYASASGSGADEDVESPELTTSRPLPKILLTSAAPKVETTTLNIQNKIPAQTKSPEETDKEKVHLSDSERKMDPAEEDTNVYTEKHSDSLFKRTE
UniProt Q9H7M9, residues 33-194: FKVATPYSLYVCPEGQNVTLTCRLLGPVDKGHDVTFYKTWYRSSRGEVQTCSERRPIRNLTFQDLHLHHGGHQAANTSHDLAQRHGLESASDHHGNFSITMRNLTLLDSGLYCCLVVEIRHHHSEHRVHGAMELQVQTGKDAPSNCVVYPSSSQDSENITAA

Q: With “C-terminal biotinylated hVISTA-Fc fusion protein (R&D Systems AVI7126-050) (from UniProt Q9H7M9 33-194)” as the substance, how does the binding read?
A: binds weakly

— publication PMC10995192 (Nature Communications, 2024)
